This is an account of results in patent US20220241330A1.

The target of test [1] is CD4-Fc protein (human) (UniProt P01730). In words: epitope binning, Zanolimumab fixed on the sensor, 100nM hCD4-Fc in solution (text: Biacore; axis: Response(nm)); blank sensor flat. On the technique in general: In SPR one partner is held on a chip, and binding of the other changes the refractive index at the surface.
Test [2] shares this target. In words: Biacore epitope binning with CD4-Fc; competitors Ibalizumab and Tregalizumab.
Test [3] addresses hybrid CD4: mouse CD4 backbone with human CD4 domain 2 (mouse; human) (UniProt P06332). Kind of test: flow cytometry on HEK293-6E cells expressing mouse CD4 with human domain 2, isotype control as reference. Background: In flow cytometry, cells or beads pass a laser one at a time.
For test [4] the target is unchanged. In words: flow cytometry on HEK-293 cells expressing mouse CD4 with a human CD4 domain.
The target in test [5] is CD4-Fc protein (human) (UniProt P01730). In words: epitope binning, Tregalizumab fixed on the sensor, 100nM hCD4-Fc in solution (text: Biacore; axis: Response(nm)); blank sensor flat.

No constants are given. Whether binding was seen depends on the method and setting. Some results given as binding are weak or reduced against the parent protein; the word gives no strength.

B1: Zanolimumab (antibody, V domains shown)
VH: QVQLQQWGAGLLKPSETLSLTCAVYGGSFSGYYWSWIRQPPGKGLEWIGEINHSGSTNYNPSLKSRVTISVDTSKNQFSLKLSSVTAADTAVYYCARVINWFDPWGQGTLVT
VL: DIQMTQSPSSVSASVGDRVTITCRASQDISSWLAWYQHKPGKAPKLLIYAASSLQSGVPSRFSGSGSGTDFTLTISSLQPEDFATYYCQQANSFPYTFGQGTKLEIK
Turning to B1, the binding result with CD4-Fc protein (human) [1] and with CD4-Fc protein (human) [2] was “binds” throughout.

B2: Tregalizumab (antibody, V domains shown)
VH: EEQLVESGGGLVKPGGSLRLSCAASGFSFSDCRMYWLRQAPGKGLEWIGVISVKSENYGANYAESVRGRFTISRDDSKNTVYLQMNSLKTEDTAVYYCSASYYRYDVGAWFAYWGQGTLVTVSS
VL: DIVMTQSPDSLAVSLGERATINCRASKSVSTSGYSYIYWYQQKPGQPPKLLIYLASILESGVPDRFSGSGSGTDFTLTISSLQAEDVAVYYCQHSRELPWTFGQGTKVEIKR
In the case of B2, the binding result (in test [3]; in test [4]; with CD4-Fc protein (human) [5]) was “binds” each time.
